Patent publication US20010027216A1, “Method for preventing hormone induced adverse effects” (priority 2000, published 2001)
At least one compound was matched to its structure with a doubt left.

Assays:
[1] = tested on: ECC-1 endometrial cancer cells; assay: ECC-1 cell proliferation, [3H]thymidine incorporation into DNA; type: cell-based, human; conditions: estradiol 1 and 10 nM (FIG. 2, panel B)
Procedure: Cells were cultured in DMEM containing penicillin (100 U/ml), streptomycin (0.1 mg/ml)) nystatin (12.5 (g/ml), insulin (0.6 (g/ml), and 10% FCS. Cells were stripped of endogenous steroids according to the procedure of Vignon et al. (1987, Biochem. Biophys. Res. Comm., 146:1502-8) by successive passages in medium without phenol red containing 10% and then 3% of charcoal-stripped FCS. Cells were seeded into 96 multiwell plates (5,000 cells per well) in DMEM containing 3% of charcoal-stripped FCS. After one day the medium was changed to one containing the solubilized carotenoid or THF alone. The medium was changed daily to ensure a continuous supply of carotenoid. After incubation, the number of cells and the rate of cell proliferation were estimated by the incorporation of [^3H]thymidine incorporation into cellular DNA, as described in U.S. Pat. No. 5,827,900. Cell growth was also measured by direct cell counting with a Coulter counter after trypsinization and dilution in Isotone-II (Coulter Electronics, Luton, England). A good correlation was found between the two methods. ECC-1 cells were incubated with increasing concentrations of the isoflavones genistein and daidzein, the two primary isoflavones in soy products, and with soy extract. Cell proliferation after three days was measured by [^3H]thymidine incorporation into DNA (FIG. 1, panel A). […]

[2] = tested on: MCF-7 mammary cancer cells; assay: MCF-7 cell proliferation, [3H]thymidine incorporation; type: cell-based, human; conditions: estradiol 1 and 10 nM (FIG. 2, panel B)
Procedure: Cells were cultured in DMEM containing penicillin (100 U/ml), streptomycin (0.1 mg/ml)) nystatin (12.5 (g/ml), insulin (0.6 (g/ml), and 10% FCS. Cells were stripped of endogenous steroids according to the procedure of Vignon et al. (1987, Biochem. Biophys. Res. Comm., 146:1502-8) by successive passages in medium without phenol red containing 10% and then 3% of charcoal-stripped FCS. Cells were seeded into 96 multiwell plates (5,000 cells per well) in DMEM containing 3% of charcoal-stripped FCS. After one day the medium was changed to one containing the solubilized carotenoid or THF alone. The medium was changed daily to ensure a continuous supply of carotenoid.
After incubation, the number of cells and the rate of cell proliferation were estimated by the incorporation of [^3H]thymidine incorporation into cellular DNA, as described in U.S. Pat. No. 5,827,900. Cell growth was also measured by direct cell counting with a Coulter counter after trypsinization and dilution in Isotone-II (Coulter Electronics, Luton, England). A good correlation was found between the two methods.
The comparative effects of estradiol and genistein supplementation on the proliferation of the hormone-dependent cell lines MCF-7 mammary cancer and ECC-1 endometrial cancer were examined (FIG. 2). […]

SMILES: C[C@]12CC[C@@H]3c4ccc(O)cc4CC[C@H]3[C@@H]1CC[C@@H]2O [Estradiol, reference compound]
- cell growth [1]: only stimulatory
- cell growth [2]: only stimulatory
